Assay results from the supplement of paper PMC11732987, “Enantioselective OTUD7B fragment discovery through chemoproteomics screening and high-throughput optimisation” (Communications Chemistry, 2025).
The other results are listed elsewhere or left out. The data scatter; read single values as rough.

The chains behind the UniProt entries cited, without tags or fusion partners. Where a name states a change or a piece, a line headed by the entry shows the natural chain unless it says otherwise. Residues count along the entry.
UniProt Q9H334, 234-266: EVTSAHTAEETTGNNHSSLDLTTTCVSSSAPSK
UniProt Q9H334, 11-33: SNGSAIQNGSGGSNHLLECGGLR
UniProt Q8NFF5: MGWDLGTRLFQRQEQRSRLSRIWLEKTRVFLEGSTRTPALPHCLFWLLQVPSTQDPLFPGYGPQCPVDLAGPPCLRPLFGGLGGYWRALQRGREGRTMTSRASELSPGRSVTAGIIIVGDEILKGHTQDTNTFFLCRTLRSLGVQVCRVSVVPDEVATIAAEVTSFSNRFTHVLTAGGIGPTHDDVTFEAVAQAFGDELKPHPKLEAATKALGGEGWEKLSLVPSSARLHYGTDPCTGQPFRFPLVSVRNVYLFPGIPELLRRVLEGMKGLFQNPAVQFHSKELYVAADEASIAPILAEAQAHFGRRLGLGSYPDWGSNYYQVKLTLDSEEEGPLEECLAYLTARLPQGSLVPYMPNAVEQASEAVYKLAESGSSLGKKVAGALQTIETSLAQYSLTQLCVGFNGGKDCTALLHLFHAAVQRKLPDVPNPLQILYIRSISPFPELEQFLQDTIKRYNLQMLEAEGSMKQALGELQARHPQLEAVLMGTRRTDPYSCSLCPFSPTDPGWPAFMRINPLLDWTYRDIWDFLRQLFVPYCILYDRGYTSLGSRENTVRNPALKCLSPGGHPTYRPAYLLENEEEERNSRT
UniProt Q13045: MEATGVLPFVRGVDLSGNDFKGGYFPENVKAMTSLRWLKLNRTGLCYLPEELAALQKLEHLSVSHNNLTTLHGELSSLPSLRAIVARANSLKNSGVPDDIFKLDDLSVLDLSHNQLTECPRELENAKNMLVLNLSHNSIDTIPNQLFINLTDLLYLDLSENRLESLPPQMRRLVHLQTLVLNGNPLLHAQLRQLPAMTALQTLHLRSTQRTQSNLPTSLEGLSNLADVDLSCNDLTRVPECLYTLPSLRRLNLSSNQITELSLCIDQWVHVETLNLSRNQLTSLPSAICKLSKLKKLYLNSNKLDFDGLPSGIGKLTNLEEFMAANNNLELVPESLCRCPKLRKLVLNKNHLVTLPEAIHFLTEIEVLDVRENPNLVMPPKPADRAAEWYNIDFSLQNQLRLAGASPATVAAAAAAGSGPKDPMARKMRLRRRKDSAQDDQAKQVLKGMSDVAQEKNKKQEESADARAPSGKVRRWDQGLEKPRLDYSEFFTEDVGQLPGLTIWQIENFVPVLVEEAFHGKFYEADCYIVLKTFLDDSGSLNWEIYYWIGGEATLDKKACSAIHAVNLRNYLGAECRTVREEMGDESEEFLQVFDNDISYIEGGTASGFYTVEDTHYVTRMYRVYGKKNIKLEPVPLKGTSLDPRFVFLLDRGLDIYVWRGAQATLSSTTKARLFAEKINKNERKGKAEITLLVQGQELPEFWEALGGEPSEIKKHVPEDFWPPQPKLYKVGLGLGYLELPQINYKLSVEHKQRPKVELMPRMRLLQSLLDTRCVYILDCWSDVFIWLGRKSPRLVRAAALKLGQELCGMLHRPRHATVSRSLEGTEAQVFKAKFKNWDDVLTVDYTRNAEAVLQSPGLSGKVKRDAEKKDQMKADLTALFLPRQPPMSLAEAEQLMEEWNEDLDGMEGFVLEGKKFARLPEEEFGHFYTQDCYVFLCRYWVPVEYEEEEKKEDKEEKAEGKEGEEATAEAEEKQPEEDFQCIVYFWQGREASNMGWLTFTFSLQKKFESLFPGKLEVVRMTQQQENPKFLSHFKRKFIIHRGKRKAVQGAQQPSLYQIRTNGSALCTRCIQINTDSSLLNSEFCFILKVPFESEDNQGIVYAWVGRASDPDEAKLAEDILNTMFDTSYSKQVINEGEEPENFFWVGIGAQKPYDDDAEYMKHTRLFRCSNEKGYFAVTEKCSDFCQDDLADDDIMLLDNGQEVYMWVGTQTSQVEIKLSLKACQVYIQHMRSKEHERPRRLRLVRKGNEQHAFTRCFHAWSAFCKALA
UniProt Q53R41: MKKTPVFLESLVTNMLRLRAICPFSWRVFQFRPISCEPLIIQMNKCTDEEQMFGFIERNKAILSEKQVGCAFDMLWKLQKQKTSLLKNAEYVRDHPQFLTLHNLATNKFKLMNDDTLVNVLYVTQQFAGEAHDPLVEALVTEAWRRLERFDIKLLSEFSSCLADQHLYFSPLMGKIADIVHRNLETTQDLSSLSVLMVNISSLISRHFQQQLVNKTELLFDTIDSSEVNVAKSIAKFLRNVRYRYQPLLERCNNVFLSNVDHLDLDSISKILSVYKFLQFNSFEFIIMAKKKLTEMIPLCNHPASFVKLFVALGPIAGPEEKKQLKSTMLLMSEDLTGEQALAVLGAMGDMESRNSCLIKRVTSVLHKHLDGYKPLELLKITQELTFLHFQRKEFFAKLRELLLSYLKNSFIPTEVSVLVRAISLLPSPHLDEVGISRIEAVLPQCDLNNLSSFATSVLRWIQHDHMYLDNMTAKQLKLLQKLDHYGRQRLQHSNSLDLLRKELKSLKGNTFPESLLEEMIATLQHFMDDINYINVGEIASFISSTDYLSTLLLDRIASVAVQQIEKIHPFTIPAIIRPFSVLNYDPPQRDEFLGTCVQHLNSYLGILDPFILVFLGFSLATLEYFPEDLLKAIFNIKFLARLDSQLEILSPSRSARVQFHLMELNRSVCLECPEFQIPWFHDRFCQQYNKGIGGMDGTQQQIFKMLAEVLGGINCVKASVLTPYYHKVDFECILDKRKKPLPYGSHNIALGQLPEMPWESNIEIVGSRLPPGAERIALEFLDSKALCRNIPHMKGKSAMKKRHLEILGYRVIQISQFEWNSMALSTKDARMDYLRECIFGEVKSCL
UniProt Q14192: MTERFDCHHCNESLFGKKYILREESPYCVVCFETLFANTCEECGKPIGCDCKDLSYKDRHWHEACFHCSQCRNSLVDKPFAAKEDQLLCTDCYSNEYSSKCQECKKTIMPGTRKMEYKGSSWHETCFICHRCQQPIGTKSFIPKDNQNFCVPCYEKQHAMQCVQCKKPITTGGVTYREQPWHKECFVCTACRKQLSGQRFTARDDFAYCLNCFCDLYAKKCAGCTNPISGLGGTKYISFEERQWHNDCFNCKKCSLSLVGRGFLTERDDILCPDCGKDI
UniProt Q9NYY8: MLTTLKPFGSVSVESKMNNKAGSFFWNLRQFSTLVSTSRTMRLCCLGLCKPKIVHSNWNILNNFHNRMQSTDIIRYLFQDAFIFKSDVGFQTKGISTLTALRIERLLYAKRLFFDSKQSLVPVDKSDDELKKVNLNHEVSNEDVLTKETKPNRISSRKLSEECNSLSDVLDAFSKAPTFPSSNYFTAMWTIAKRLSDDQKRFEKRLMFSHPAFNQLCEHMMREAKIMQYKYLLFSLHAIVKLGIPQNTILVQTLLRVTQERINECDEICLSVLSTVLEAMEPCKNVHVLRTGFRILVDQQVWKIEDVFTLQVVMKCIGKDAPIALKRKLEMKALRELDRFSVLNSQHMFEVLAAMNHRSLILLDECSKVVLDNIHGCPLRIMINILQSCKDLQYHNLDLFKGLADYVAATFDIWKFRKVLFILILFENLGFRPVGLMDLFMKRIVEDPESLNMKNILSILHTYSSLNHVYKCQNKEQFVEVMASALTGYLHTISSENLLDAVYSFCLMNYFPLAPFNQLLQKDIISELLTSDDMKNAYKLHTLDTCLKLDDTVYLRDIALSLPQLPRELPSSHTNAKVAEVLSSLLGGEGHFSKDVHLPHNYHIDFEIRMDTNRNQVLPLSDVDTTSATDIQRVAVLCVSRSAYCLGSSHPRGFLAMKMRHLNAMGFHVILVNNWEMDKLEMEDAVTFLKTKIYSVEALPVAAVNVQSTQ
UniProt P16591: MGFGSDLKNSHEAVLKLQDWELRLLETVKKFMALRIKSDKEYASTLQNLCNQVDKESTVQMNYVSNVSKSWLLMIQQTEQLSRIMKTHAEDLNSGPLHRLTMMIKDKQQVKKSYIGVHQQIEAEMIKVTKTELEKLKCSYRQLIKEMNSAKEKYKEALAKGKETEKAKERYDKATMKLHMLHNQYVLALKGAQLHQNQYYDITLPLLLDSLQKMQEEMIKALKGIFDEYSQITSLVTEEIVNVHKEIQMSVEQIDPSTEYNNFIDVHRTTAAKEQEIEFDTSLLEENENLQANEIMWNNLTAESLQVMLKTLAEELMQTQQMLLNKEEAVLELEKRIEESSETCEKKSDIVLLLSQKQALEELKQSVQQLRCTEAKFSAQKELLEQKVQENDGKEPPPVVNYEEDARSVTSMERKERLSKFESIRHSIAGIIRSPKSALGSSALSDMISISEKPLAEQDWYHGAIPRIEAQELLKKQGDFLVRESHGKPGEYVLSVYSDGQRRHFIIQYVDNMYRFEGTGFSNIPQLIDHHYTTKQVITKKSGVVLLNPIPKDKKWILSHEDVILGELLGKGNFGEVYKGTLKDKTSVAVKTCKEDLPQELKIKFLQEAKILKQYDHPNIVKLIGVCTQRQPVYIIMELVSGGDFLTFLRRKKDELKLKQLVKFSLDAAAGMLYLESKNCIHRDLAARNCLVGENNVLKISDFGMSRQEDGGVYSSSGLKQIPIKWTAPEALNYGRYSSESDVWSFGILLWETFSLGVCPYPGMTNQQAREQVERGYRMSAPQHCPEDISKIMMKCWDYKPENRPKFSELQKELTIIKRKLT
UniProt Q9UET6: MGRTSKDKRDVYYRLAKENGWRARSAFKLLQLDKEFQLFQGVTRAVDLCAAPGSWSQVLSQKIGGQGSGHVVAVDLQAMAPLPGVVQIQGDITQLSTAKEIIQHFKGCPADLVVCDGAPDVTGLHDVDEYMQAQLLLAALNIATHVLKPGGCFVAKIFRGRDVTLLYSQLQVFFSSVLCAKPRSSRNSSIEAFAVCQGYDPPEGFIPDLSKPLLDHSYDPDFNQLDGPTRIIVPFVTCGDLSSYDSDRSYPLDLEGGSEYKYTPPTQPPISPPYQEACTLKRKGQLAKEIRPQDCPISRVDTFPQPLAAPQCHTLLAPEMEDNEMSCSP
UniProt O14772, 437-457: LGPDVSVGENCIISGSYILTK
UniProt Q14C86: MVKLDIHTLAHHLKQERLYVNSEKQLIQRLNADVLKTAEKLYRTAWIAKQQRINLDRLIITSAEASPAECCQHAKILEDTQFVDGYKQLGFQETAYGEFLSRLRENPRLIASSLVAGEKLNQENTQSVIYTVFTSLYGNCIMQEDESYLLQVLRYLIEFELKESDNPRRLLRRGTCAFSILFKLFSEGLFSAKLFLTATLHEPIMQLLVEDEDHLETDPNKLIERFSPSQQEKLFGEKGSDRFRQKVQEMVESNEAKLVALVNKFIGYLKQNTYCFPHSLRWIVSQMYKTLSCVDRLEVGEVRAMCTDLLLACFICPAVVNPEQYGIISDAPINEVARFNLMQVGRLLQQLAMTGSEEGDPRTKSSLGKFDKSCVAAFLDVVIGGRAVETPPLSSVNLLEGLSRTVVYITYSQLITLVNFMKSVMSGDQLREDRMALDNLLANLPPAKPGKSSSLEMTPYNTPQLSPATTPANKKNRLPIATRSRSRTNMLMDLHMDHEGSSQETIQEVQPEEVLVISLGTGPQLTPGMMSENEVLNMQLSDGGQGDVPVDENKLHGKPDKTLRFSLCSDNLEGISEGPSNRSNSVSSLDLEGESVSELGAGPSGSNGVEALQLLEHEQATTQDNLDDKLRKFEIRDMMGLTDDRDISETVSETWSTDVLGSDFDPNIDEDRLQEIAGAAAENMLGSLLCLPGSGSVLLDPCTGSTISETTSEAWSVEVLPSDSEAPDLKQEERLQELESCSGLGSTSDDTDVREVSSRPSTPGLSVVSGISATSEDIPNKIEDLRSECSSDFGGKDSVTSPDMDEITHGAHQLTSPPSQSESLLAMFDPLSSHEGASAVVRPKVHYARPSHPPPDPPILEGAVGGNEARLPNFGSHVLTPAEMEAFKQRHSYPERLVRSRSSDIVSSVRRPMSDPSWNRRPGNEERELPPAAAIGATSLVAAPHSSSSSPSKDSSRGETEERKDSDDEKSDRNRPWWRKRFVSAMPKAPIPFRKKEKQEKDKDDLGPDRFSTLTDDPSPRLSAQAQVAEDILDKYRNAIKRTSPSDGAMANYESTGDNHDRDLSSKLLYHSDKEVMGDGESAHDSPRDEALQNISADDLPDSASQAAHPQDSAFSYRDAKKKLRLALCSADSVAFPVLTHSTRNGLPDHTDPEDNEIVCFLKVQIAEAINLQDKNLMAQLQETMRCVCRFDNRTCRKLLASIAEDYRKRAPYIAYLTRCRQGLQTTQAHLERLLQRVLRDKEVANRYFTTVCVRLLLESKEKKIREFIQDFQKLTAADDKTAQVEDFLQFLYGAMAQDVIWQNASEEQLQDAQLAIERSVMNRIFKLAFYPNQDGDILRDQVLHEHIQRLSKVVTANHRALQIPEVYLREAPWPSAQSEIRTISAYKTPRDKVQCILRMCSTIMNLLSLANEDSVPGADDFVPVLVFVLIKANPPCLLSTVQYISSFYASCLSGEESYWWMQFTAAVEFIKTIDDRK
UniProt Q9Y324: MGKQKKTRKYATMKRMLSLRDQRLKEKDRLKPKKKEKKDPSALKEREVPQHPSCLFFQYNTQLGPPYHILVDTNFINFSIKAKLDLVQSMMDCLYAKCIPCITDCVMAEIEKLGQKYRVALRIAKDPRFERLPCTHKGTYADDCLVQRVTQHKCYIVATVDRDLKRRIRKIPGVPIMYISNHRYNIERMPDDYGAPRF

Assays:
[1] = compound: ClCC(=O)N[C@@H]1CCCc2ccccc12; assay: log2 mean competition ratio of IA-DTB cysteine labelling (DMSO/compound) (log2 ratio); higher = stronger cysteine engagement by compound; settings: treatment time: 4 h, cell line lysate: HEK293T
Protocol: (§1)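 IA-DTB competitive cysteine chemoproteomics in HEK293T RIPA lysate. Lysates were treated with compound 29 or 30 at 50 or 200 µM for 4 h, then IA-DTB (500 µM, 1 h), trypsin-digested, NeutrAvidin-enriched and analysed by diaPASEF. Competition ratio = intensity DMSO / intensity compound (n=4 treated, n=64 DMSO); binding: mean log2 CR ≥ 1 and p ≤ 0.05 plus QC filters. Target is the cysteine site.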

[2] = compound: ClCC(=O)N[C@H]1CCCc2ccccc12; assay: as above; settings: treatment time: 4 h, cell line lysate: HEK293T
Protocol: as §1

| Target | log2 mean competition ratio ([1]; 50 µM) | log2 mean competition ratio ([1]; 200 µM) | log2 mean competition ratio ([2]; 50 µM) | log2 mean competition ratio ([2]; 200 µM) |
| --- | --- | --- | --- | --- |
| FOXP1 C258 (UniProt Q9H334) | -0.593 | -0.104 | 0.121 | -0.352 |
| FLAD1 C236 (UniProt Q8NFF5) | 0.107 | 0.145 | 0.0942 | 0.034 |
| GAPDH C247 (UniProt P04406) | -0.244 | 0.0255 | -0.442 | -0.341 |
| GATAD1 C179 | -0.106 | -0.187 | -0.156 | -0.0435 |
| FOXP1 C29 (UniProt Q9H334) | -0.109 | 0.327 | -0.324 | 0.139 |
| FASTKD5 C525 (UniProt Q7L8L6) | -0.0348 | 0.0847 | 0.132 | -0.163 |
| GARRE1 C196 | 0.0842 | -0.0885 | -0.183 | 0.0128 |
| G6PD C13 | 0.0173 | -0.162 | 0.2 | -0.132 |
| FBXL15 C139 (UniProt Q9H469) | 0.000276 | 0.552 | 0.283 | 0.409 |
| FLNC C1103 (UniProt Q14315) | -0.237 | 0.656 | -0.101 | 0.0988 |
| FLII C289 (UniProt Q13045) | -0.0548 | -0.0193 | 0.0161 | 0.0642 |
| FASTKD1 C300 (UniProt Q53R41) | 0.293 | -0.149 | -0.275 | -0.0521 |
| FLII C46 (UniProt Q13045) | 0.433 | -0.244 | 0.243 | -0.00168 |
| FLII C1067 (UniProt Q13045) | -0.103 | 0.0871 | 0.122 | 0.0599 |
| FHOD1 C936 (UniProt Q9Y613) | 0.139 | 0.526 | -0.579 | -0.244 |
| GAREM1 C9 | 0.122 | -0.0582 | 0.224 | 0.273 |
| FZD3 C600 | 0.135 | 0.232 | 0.484 | 0.238 |
| FNDC3B C218 (UniProt Q53EP0) | -0.361 | -0.111 | -0.75 | 0.0149 |
| FLNC C1066 (UniProt Q14315) | -0.00469 | 0.218 | -0.279 | 0.226 |
| GART C1005 | 0.0639 | -0.0588 | 0.046 | 0.0384 |
| GAK C87 (UniProt O14976) | 0.341 | 0.34 | 0.0213 | 0.309 |
| FIG4 C842 (UniProt Q92562) | -0.132 | 0.133 | 0.045 | 0.223 |
| FRA10AC1 C175 (UniProt Q70Z53) | 0.0128 | -0.135 | 0.265 | -0.155 |
| FBXW9 C240 (UniProt Q5XUX1) | 0.177 | -0.0307 | -0.236 | -0.198 |

Exported bar-delimited: entries from further up.
Target | log2 mean competition ratio ([1]; 50 µM) | log2 mean competition ratio ([1]; 200 µM) | log2 mean competition ratio ([2]; 50 µM) | log2 mean competition ratio ([2]; 200 µM)
GARRE1 C196 | 0.0842 | -0.0885 | -0.183 | 0.0128
G6PD C13 | 0.0173 | -0.162 | 0.2 | -0.132

Continuation.

| Target | log2 mean competition ratio ([1]; 50 µM) | log2 mean competition ratio ([1]; 200 µM) | log2 mean competition ratio ([2]; 50 µM) | log2 mean competition ratio ([2]; 200 µM) |
| --- | --- | --- | --- | --- |
| GARS1 C180 | -0.162 | 0.0134 | 0.203 | -0.282 |
| FHL2 C132 (UniProt Q14192) | -0.087 | -0.162 | 0.288 | 0.103 |
| FOXC1 C135 | 0.268 | 0.449 | 0.0264 | 0.327 |
| FASTKD2 C645 (UniProt Q9NYY8) | 0.191 | -0.224 | -0.078 | -0.331 |
| FASN C1881 | 0.555 | -0.643 | 0.389 | -0.629 |
| FNBP1 C609 (UniProt Q96RU3) | -0.127 | -0.0205 | 0.192 | 0.0324 |
| FOXM1 C56 | 0.113 | 0.681 | 0.015 | 0.196 |
| FER C593 (UniProt P16591) | -0.132 | 0.142 | -0.481 | 0.105 |
| FNBP4 C108 (UniProt Q8N3X1) | 0.0506 | 0.18 | 0.469 | 0.215 |
| FBLIM1 C35 | -0.182 | 0.32 | 0.0538 | 0.125 |
| FTSJ1 C49 (UniProt Q9UET6) | 0.225 | 0.133 | 0.0665 | 0.205 |
| FBXO17 C114 | -0.0265 | -0.353 | 0.398 | -0.309 |
| FASTKD5 C708 (UniProt Q7L8L6) | 0.28 | -0.251 | 0.58 | 0.0859 |
| FGD1 C739 | -0.13 | -0.00335 | -0.431 | -0.219 |
| FBXL20 C298 (UniProt Q96IG2) | 0.186 | -0.0931 | 0.0903 | -0.163 |
| FLNA C1018 | -0.153 | 0.101 | -0.319 | 0.0554 |
| FEM1B C129 (UniProt Q9UK73) | -0.172 | -0.306 | -0.366 | 0.0547 |
| FPGT C447 (UniProt O14772) | 0.315 | 0.0821 | 0.241 | -0.038 |
| FHL2 C254 (UniProt Q14192) | 0.622 | 0.154 | 0.214 | 0.256 |
| GAPVD1 C568 (UniProt Q14C86) | 0.0118 | 0.193 | 0.556 | 0.193 |
| FLNA C1402 | 0.224 | -0.00725 | 0.297 | 0.0913 |
| FKBP4 C396 (UniProt Q02790) | 0.0671 | -0.137 | 0.215 | -0.0356 |
| FCF1 C144 (UniProt Q9Y324) | -0.0304 | 0.0566 | -0.0828 | 0.163 |
